From PubChem BioAssay (NCATS)
This list was built around the results that the source calls inconclusive (neither active nor inactive); the mix of calls is not that of the screen. For some of these results: A potency beside an inconclusive call is a rough fit, not a confirmed value. Active and inactive are the calls of the source. Unless noted, the call rests on the fitted dose curve; in most records, active means well fitted curve in the direction sought with a large enough effect; inconclusive means small, poorly fitted or top-dose-only effect, or another doubt; inactive means no such curve, though single readings can be large; an effect the other way counts as inactive or inconclusive.

By UniProt entry, the sequences of proteins in these tests, tags left out. Where a name states a change or a piece, a line headed by the entry shows the natural chain unless it says otherwise.
UniProt P10635, whole entry, looked up: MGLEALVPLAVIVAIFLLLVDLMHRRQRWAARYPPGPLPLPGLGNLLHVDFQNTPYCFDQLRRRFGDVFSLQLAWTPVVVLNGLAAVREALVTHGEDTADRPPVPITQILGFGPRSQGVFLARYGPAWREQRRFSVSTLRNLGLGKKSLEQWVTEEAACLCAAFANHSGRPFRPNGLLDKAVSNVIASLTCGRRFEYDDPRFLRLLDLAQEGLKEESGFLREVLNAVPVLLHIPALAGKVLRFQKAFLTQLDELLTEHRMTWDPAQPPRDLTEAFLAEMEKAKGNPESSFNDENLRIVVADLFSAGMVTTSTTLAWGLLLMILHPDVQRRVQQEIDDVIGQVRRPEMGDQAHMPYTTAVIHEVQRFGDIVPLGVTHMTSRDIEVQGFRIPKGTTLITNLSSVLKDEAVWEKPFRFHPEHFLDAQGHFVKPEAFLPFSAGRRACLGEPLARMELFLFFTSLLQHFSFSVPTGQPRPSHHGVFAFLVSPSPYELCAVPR
UniProt P33261, whole entry, looked up: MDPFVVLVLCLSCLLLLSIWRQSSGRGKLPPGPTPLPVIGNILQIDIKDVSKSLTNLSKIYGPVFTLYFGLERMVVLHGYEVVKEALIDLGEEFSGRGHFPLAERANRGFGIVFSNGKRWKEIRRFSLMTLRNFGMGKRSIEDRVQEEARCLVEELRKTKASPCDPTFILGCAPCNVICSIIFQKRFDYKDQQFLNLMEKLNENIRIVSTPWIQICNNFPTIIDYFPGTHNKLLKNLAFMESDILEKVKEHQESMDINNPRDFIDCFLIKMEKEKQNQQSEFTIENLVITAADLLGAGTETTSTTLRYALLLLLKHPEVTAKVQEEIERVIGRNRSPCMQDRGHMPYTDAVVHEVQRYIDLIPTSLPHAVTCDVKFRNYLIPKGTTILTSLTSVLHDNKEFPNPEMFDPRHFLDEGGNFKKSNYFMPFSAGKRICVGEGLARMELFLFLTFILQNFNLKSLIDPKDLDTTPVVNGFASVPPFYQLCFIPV
UniProt P08482: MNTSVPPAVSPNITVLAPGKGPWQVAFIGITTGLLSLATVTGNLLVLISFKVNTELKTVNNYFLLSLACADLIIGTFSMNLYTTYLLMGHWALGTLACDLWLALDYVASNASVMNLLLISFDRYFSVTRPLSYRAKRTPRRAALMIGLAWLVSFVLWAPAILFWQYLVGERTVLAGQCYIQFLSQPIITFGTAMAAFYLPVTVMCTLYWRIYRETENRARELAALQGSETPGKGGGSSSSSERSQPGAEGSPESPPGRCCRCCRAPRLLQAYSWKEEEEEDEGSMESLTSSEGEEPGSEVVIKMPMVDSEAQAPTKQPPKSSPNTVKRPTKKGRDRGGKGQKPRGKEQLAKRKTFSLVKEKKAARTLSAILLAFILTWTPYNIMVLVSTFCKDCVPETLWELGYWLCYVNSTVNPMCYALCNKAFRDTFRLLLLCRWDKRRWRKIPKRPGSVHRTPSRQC
UniProt O94782: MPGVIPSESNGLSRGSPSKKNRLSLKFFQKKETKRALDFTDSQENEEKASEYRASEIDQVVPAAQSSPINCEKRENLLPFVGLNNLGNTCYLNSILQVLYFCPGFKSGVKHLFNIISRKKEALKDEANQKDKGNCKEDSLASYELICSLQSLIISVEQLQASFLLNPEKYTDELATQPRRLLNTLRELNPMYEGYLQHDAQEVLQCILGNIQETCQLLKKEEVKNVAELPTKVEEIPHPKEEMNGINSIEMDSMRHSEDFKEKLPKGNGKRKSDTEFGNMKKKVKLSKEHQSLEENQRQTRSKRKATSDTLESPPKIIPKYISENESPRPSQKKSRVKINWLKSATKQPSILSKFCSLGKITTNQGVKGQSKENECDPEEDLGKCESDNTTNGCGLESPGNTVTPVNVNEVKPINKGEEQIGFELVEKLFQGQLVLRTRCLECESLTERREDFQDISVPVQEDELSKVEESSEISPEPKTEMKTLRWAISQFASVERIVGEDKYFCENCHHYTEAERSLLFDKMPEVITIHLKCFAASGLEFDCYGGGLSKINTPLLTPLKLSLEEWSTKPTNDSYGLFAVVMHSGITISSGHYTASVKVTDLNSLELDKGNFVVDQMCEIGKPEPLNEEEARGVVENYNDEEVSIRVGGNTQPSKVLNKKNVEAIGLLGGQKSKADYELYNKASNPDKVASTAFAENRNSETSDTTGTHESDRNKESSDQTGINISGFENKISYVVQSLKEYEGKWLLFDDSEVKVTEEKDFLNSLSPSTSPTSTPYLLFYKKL
UniProt Q07343: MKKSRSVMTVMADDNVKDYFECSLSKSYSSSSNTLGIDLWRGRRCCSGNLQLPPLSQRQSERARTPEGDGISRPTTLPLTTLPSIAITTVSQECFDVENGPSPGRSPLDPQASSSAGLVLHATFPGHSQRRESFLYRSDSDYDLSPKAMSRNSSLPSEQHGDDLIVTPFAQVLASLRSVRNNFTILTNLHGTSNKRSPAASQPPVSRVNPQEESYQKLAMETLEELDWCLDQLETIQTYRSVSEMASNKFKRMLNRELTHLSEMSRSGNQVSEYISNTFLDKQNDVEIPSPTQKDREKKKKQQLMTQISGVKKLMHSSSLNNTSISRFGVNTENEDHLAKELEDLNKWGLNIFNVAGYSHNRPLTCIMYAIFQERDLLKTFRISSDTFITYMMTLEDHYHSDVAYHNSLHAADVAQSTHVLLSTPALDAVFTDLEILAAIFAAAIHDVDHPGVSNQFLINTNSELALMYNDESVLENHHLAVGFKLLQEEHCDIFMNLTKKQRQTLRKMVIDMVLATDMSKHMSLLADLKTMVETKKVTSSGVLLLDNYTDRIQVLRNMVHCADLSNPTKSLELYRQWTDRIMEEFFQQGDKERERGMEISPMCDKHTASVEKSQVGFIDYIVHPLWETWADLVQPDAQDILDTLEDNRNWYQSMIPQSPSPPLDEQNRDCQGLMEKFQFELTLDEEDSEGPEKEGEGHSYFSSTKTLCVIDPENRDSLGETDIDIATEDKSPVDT

How the values were obtained:
[1] = Stat Signaling Pathway (AID 446; active means well fitted curve in either direction with a large enough effect, not every such curve was filed as active; inconclusive means small, poorly fitted or top-dose-only effect, or another doubt;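 further: ME-180 cervical cancer cells given 40 pM IL-6 alongside compound; SIE-controlled beta-lactamase reporter measured as 460/530 nm FRET emission ratio; on the % scale 0 is the no-effect control and ±100 the full control effect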); details: ME-180 SIE beta-lactamase reporter, IL-6 stimulated, 5 h
Procedure, shortened: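 Emission at 460 and 530 nm (excitation 405 nm) reports SIE-controlled beta-lactamase in ME-180 cells. Cells received compound with 40 pM IL-6 for 5 hrs at 37 C; data scaled between 300 pM IL-6 and 125 nM JAK-inhibitor controls.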

[2] = target: Cytochrome P450 2D6 (Homo sapiens) (UniProt P10635); test: qHTS Assay for Inhibitors and Substrates of Cytochrome P450 2D6 (AID 891); details: recombinant CYP2D6, luciferin-ME EGE luminescence; series mostly up to 57.1 µM; further: potency means the concentration at half of the fitted maximal effect; nearly all actives have a fitted effect of over 60% in size
Procedure, shortened: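 Luminescent read-out of luciferin formed by 5 nM human CYP2D6 demethylating 30 uM Luciferin-ME EGE (Km level) over 60 min at room temperature after NADPH regeneration addition. Data normalized to full inhibition by 1.43 uM quinidine.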

[3] = qHTS Assay for Identification of Small Molecule Antagonists for NFkB Signaling Pathway (AID 895; active means well fitted inhibition curve with a large enough effect in the signal ratio, with a control signal flat, not every such curve was filed as active; inconclusive means small, poorly fitted or top-dose-only effect, or effect the other way, or a change in a side signal; the % refers to the signal ratio; further: on the % scale 0 is the no-effect control and ±100 the full control effect); details: NFkB beta-lactamase reporter cells, FRET ratio 460/530; activity change, negative = inhibition: at 38.3 µM (top of the series) unless noted
Procedure, shortened: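 ME-180 NFkB-bla cells (beta-lactamase under NFkB response element), plated overnight, treated with compound then 10 pM TNF alpha (about EC50) for 5 hrs at 37 C. LiveBLAzer FRET read at 460/530 nm emission, 405 nm excitation.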

[4] = target: Cytochrome P450 2C19 (Homo sapiens) (UniProt P33261); test: qHTS Assay for Inhibitors and Substrates of Cytochrome P450 2C19 (AID 899); details: recombinant CYP2C19, luciferin-H EGE luminescence; series mostly up to 57.1 µM; further: potency means the concentration at half of the fitted maximal effect; nearly all actives have a fitted effect of over 60% in size
Procedure, shortened: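 5 nM human CYP2C19 with 10uM Luciferin-H EGE (at KM) in 50mM KPO4, compound preincubated 10 min at 37C, then NADPH regeneration for 60 min at 37C. Luciferin read by luminescence after detection reagent; normalized to 57uM ketoconazole as full inhibition.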

[5] = qHTS Assay for Identification of Small Molecule Antagonists for Thrombopoietin (TPO) Signaling Pathway (AID 918); details: TPO-dependent cell signaling reporter, antagonist mode; activity change, negative = inhibition: at 38.5 µM (top of the series)
Procedure, shortened: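 Inhibition read as reduced luciferase luminescence after 24 h at 37 C in IL-3-deprived Ba/F3 cells carrying human TPO receptor and GPIIb-promoter reporter, stimulated with 26 pM TPO (final, its EC50) alongside compound.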

[6] = target: Muscarinic acetylcholine receptor M1 (Rattus norvegicus) (UniProt P08482); test: qHTS Assay for Antagonists of Acetylcholine Muscarinic M1 Receptor: Measurement of IP-One Response (AID 944); details: CHO-M1 cells, IP-One HTRF, antagonist mode; series mostly up to 46.1 µM; further: potency means the concentration at half of the fitted maximal effect; nearly all actives have a fitted effect of over 75% in size
[7] = qHTS Assay for Lipid Storage Modulators (AID 1519; calls by dose curve; further: potency means the concentration at half of the fitted maximal effect; on activity change, negative = inhibition: on the % scale 0 is the no-effect control and ±100 the full control effect); details: Drosophila S3 cells, BODIPY lipid droplet/cell ratio, laser cytometry, cells loaded with oleic acid; activity change, negative = inhibition: at 57.5 µM (top of the series) unless noted
Procedure, shortened: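 Cells seeded at 5,000 per well were treated with compounds over a concentration series and loaded with oleic acid (400 uM, as added). Lipid droplet fluorescence (488 nm excitation, 500-530 nm channel) was read by laser-scanning cytometry and normalized to 20 uM Triacsin C.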

7G8 = test: qHTS profiling for inhibitors of Plasmodium falciparum proliferation (AID 504749); further: nearly all actives have a fitted effect of over 60% in size; further: potency means the concentration at half of the fitted maximal effect;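 on activity, negative = inhibition: 0% = DMSO vehicle and full inhibition = artemisinin control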; details: P. falciparum in erythrocytes, SYBR Green DNA, 72 h; series mostly up to 28.7 µM
Procedure, shortened: (§1)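 Each compound contacts P. falciparum-infected red blood cells for 72 h at 37 C; lysis buffer (Tris, EDTA, saponin, Triton X, SYBR Green I) is added and fluorescence measured next morning; values normalized to controls.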

CP237 = test: as above; details: P. falciparum in erythrocytes, SYBR Green DNA, 72 h; series mostly up to 28.7 µM
Procedure, shortened: as §1

CP247 = test: as above; details: P. falciparum in erythrocytes, SYBR Green DNA, 72 h; series mostly up to 28.7 µM
Procedure, shortened: as §1

CP265 = test: as above; details: P. falciparum in erythrocytes, SYBR Green DNA, 72 h; series mostly up to 28.7 µM
Procedure, shortened: as §1

CP335 = test: as above; details: P. falciparum in erythrocytes, SYBR Green DNA, 72 h; series mostly up to 28.7 µM
Procedure, shortened: as §1

DIV17 = test: as above; details: P. falciparum in erythrocytes, SYBR Green DNA, 72 h; series mostly up to 28.7 µM
Procedure, shortened: as §1

Dd2 = test: as above; details: P. falciparum in erythrocytes, SYBR Green DNA, 72 h; series mostly up to 28.7 µM
Procedure, shortened: as §1

ICS = test: as above; details: P. falciparum in erythrocytes, SYBR Green DNA, 72 h; series mostly up to 28.7 µM
Procedure, shortened: as §1

PAD = test: as above; details: P. falciparum in erythrocytes, SYBR Green DNA, 72 h; series mostly up to 28.7 µM
Procedure, shortened: as §1

W2 = test: as above; details: P. falciparum in erythrocytes, SYBR Green DNA, 72 h; series mostly up to 28.7 µM
Procedure, shortened: as §1

[8] = target: Ubiquitin carboxyl-terminal hydrolase 1 (Homo sapiens) (UniProt O94782); test: Inhibitors of USP1/UAF1: Pilot qHTS (AID 504865); details: purified USP1/UAF1, Ub-rhodamine cleavage fluorescence; series mostly up to 114 µM; further: nearly all actives have a fitted effect of over 35% in size; further: potency means the concentration at half of the fitted maximal effect
Procedure, shortened: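 In 50mM HEPES pH 7.8 containing 0.5mM EDTA, 1mM TCEP, 0.1 mg/ml BSA and 0.01% Tween-20, 1nM USP1/UAF1 is exposed to compound for 15 min, then Ub-Rho (150nM final) is added and fluorescence is read over time.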

CP297 = test: qHTS profiling for inhibitors of Plasmodium falciparum proliferation (AID 504749); further: nearly all actives have a fitted effect of over 60% in size; further: potency means the concentration at half of the fitted maximal effect;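 on activity, negative = inhibition: 0% = DMSO vehicle and full inhibition = artemisinin control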; details: P. falciparum in erythrocytes, SYBR Green DNA, 72 h; series mostly up to 28.7 µM
Procedure, shortened: as §1

GB4 = test: as above; details: P. falciparum in erythrocytes, SYBR Green DNA, 72 h; series mostly up to 28.7 µM
Procedure, shortened: as §1

[9] = NFAT Signaling Pathway (AID 444; active means well fitted curve in either direction with a large enough effect, not every such curve was filed as active; inconclusive means small, poorly fitted or top-dose-only effect, or another doubt;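 further: carbachol stimulus at about its EC50 of 1 µM final; on the % scale 0 is the no-effect control and ±100 the full control effect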); details: Jurkat NFAT-bla M1, carbachol, beta-lactamase ratio, 5 h; at 7.69 µM (top of the series) unless noted
Procedure, shortened: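 Jurkat cells with NFAT-driven β-lactamase reporter and co-expressed M1 receptor, stimulated with carbachol (final 1 uM, ~EC50), compound titration, 5 h at 37 °C. CCF4 loaded 1 h at RT; 460/530 nm ratio gave %activity and AC50.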

[10] = target: 3',5'-cyclic-AMP phosphodiesterase 4B (Homo sapiens) (UniProt Q07343); test: qHTS Assay for Inhibitors of PDE-IV (AID 607; active means well fitted activation curve with a large enough effect in the main read-out, with a control signal flat, not every such curve was filed as active; inconclusive means small, poorly fitted or top-dose-only effect, or effect the other way, or a change in a side signal; further: potency means the concentration at half of the fitted maximal effect); details: HEK293 ACTOne CNG channel cells, membrane potential fluorescence; activation (PDE inhibition): at 22.9 µM (top of the series)
Procedure, shortened: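 The readout is membrane depolarisation from a cAMP-sensing CNG channel, detected with a potential dye at ex 535/em 590. Cells were HEK293-derived (endogenous PDE-IV) at 1000 cells/well, titrated up to 22.9 uM final.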

[11] = qHTS Assay for Identification of Small Molecule Agonists for Hypoxia Response Element Signaling Pathway (AID 914; active means well fitted activation curve with a large enough effect in the signal ratio, with a control signal flat, not every such curve was filed as active; inconclusive means small, poorly fitted or top-dose-only effect, or effect the other way, or a change in a side signal; the % refers to the signal ratio; further: potency means the concentration at half of the fitted maximal effect); details: ME-180 (cervical carcinoma) HRE-bla reporter, beta-lactamase ratio, CoCl2, 17 h; activation: hits give high values
Procedure, shortened: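 Cells were plated overnight, pin-dosed with compound in a titration series, co-stimulated with EC50 CoCl2 and incubated 17 hours at 37 degrees Celsius. CCF4 substrate was then loaded, and AC50 values came from the 460nm/530nm ratio.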

SMILES: C[C@H](NC(C)(C)C)C(=O)c1cccc(Cl)c1
- activity, negative = inhibition ([1]; at 17.2 µM (top of the series)): inactive: 9.85%
- activity, negative = inhibition ([1]; at 38 µM (top of the series)): inconclusive: 13.2% [activator]
- Potency [2]: inconclusive: 6.31 µM [inhibitor, partial curve]
- activity change, negative = inhibition [3]: inconclusive: 23%
- Potency [4]: inconclusive: 3.16 µM [inhibitor, full curve, poor fit]
- activity change, negative = inhibition [5]: inconclusive: -17.7% [phenotype inactive]
- Potency [6]: inconclusive: 20 µM [inhibitor, partial curve, poor fit]
- Potency [7]: inactive
- Potency (7G8): inconclusive: 7.94 µM [inhibitor, partial curve, poor fit]
- Potency (CP237): inconclusive: 20 µM [inhibitor, single point]
- Potency (CP247): inconclusive: 8.91 µM [inhibitor, single point]
- Potency (CP265): inconclusive: 11.2 µM [inhibitor, single point]
- Potency (CP335): inconclusive: 19 µM [inhibitor, partial curve, poor fit]
- Potency (DIV17): inconclusive: 10.7 µM [inhibitor, partial curve, poor fit]
- Potency (Dd2): inconclusive: 15.8 µM [inhibitor, single point]
- Potency (ICS): inconclusive: 11.2 µM [inhibitor, single point]
- Potency (PAD): inactive
- Potency (W2): inconclusive: 16.9 µM [inhibitor, single point]

SMILES: NC1C[C@H]1c1ccccc1 (some centres not stated)
- activity change, negative = inhibition [7]: inconclusive: 14.6%
- Potency [8]: inactive

SMILES: CN(C)C(=O)Oc1cc(OC(=O)N(C)C)cc([C@@H](O)CNC(C)(C)C)c1
- Potency [7]: inactive
- Potency [8]: inactive
- Potency (CP237): inactive
- Potency (CP265): inactive
- Potency (CP297): inactive
- Potency (GB4): inactive

SMILES: O=C(Nc1cccc(F)c1)N1CCCC2(CCN(C(=O)Oc3ccccc3)CC2)C1
- activity change, negative = inhibition [9]: inconclusive: -51.3% [inhibitor]
- activity, negative = inhibition ([1]; at 38 µM (top of the series) unless noted): inactive: -11.5% [at 7.69 µM]
- Potency [10]: inconclusive: 10 µM [activator, partial curve]
- Potency [11]: inconclusive: 1.26 µM [inhibitor, partial curve]
- activity change, negative = inhibition [7]: inconclusive: 2.52%

SMILES: CN1CC(CNC(=O)OCc2ccccc2)CC2c3cccc4c3c(cn4C)CC21 (configuration not stated)
- Potency [7]: inactive
- Potency [8]: inconclusive: 56.2 µM [inhibitor, partial curve, poor fit]

SMILES: COc1cc2c(cc1OC)[C@@H]1C(=O)c3ccc4oc(C(C)C)cc4c3OC1CO2 (some centres not stated)
- Potency [7]: active: 2.51 µM
- Potency [8]: inconclusive: 50.1 µM [inhibitor, partial curve, poor fit]

SMILES: COc1cc2c(cc1OC)-c1c(OC)c(OC)c(C=O)c3c1[C@H](C2)N(C)CC3
- Potency [7]: inconclusive: 12.6 µM [rising, partial curve, poor fit]
- Potency [8]: active: 20 µM
